Test results reported in paper PMC12848160.
No constants are given. Whether binding was seen depends on the method and setting. In cells and extracts the contact can be indirect. Some entries that bind do so weakly or less than the wild type. For some assays here: Where a sequence is shown, tags or fusion partners need not be part of it.

Sequences of proteins named here, by UniProt entry; tags and fusion partners are left off.
UniProt P49336: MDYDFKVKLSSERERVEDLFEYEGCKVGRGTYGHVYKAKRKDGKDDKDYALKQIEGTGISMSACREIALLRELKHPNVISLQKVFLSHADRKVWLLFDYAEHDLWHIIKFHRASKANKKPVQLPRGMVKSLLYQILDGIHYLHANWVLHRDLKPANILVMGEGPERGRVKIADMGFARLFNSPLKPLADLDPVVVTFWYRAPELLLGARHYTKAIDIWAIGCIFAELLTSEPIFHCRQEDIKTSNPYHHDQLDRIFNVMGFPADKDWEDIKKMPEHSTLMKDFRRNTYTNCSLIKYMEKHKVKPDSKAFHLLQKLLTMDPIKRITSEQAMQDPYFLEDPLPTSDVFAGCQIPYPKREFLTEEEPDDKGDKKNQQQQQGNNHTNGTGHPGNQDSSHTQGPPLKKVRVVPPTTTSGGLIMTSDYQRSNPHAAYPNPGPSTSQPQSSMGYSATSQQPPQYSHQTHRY
UniProt P48382: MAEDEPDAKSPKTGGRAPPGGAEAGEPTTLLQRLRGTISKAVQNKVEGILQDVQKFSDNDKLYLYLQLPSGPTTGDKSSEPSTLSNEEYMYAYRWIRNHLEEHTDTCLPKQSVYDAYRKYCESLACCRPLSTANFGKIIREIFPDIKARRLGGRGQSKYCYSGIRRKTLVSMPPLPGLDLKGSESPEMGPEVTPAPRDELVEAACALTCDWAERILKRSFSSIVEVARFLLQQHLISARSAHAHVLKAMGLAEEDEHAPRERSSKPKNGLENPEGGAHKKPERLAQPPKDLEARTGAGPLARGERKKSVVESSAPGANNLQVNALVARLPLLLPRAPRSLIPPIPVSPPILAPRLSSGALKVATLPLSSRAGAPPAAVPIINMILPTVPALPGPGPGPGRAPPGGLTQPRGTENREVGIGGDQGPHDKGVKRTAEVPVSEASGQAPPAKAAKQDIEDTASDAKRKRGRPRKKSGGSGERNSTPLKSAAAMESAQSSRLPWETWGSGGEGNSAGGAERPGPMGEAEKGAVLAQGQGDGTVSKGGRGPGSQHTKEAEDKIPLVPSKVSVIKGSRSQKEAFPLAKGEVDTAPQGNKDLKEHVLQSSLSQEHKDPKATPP

Legend:
[1] = molecular target: T1, endogenous MED23 (with a knock-in HA-tag) (human (endogenous in 293T)) (UniProt Q9ULK4); assay: co-IP; 293T cells with HA-tag knocked in at the MED23 locus (WT 293T as control); lysis in PBS with 5 mM EDTA, 1% Triton X-100; anti-HA beads, 4 °C overnight; Western blot
T1 sequence: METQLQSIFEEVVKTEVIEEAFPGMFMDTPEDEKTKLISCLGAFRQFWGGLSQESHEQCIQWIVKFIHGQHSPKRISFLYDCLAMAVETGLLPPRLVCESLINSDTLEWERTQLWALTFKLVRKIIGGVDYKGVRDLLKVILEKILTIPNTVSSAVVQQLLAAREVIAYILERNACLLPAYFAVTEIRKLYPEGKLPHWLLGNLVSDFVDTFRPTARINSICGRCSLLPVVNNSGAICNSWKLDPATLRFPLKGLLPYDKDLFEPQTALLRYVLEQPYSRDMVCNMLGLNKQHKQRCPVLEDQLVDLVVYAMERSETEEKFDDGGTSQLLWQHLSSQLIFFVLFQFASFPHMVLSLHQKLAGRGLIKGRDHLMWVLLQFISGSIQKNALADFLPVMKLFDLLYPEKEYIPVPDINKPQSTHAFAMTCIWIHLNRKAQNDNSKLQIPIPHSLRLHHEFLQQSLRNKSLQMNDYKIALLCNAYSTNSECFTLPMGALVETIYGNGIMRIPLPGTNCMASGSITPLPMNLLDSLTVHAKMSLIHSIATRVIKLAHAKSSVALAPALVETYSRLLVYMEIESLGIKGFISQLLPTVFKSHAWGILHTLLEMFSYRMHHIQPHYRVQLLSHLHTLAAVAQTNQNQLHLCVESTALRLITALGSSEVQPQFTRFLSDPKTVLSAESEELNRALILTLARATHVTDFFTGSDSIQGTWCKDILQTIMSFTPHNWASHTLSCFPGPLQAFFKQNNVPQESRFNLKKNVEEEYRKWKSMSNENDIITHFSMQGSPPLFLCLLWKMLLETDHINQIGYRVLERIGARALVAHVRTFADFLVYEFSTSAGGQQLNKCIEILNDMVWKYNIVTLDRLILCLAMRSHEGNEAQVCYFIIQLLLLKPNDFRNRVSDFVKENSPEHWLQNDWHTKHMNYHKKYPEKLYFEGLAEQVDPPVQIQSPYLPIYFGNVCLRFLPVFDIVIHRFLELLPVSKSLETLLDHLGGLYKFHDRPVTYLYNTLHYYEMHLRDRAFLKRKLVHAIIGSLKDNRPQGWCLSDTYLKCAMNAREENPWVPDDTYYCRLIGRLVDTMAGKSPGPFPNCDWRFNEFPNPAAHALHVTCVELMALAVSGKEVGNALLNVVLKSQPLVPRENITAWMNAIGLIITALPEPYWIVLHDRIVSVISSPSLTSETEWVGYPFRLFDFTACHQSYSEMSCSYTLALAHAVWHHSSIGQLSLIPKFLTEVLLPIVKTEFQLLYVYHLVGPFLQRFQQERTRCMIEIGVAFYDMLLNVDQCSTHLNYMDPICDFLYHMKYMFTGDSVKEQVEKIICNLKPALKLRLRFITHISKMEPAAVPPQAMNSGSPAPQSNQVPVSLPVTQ

[2] = molecular target: Mediator kinase subunit CDK8 (UniProt P49336); assay: co-IP; immunoprecipitation with an antibody to CDK8; cells and conditions not told in the text shown (Supplementary Fig. 7H)

binding [1]	binding [2]	Substance
binds	–	endogenous RFX5 (from UniProt P48382 1-616)
–	binds	RFX5 (in the CDK8 immunoprecipitate) (from UniProt P48382 1-616)
